Measured values: patent publication US11607458B2 (Georgia State University Research Foundation, Inc, priority 2017, dated 2023)
Several values for one entry are separate records, joined by “and”; a condition that tells them apart may be missing. Equal values may be shown once.

Test: Release of the parent drug (Dox / dansyl amine) from prodrugs treated with alkynes, monitored by HPLC
Type: physicochemical
Settings: PBS 10% DMSO
Protocol: (§1) Standard curve of Dox concentration measurement. To four HPLC vials containing 0.9 mL PBS (size: 1.5 mL) were added 25, 15, 20, 10 μL Dox stock solution (1 mM) respectively. Then defined amounts DMSO (975, 985, 980, and 990 μL) were added to each vial to afford final concentration of four vials were 25, 15, 20, 10 μM in PBS (10% DMSO), respectively. The samples were analyzed with HPLC method A. Dox retention time: 4.0 min.
as §1, with “for DA” for “of Dox”, “B. DA” for “A. Dox”, “5.8” for “4.0”
General procedures HPLC studies of reaction kinetics. To three 20-ml vials with 9 mL PBS were added a solution of tetrazine prodrug (500 μL, 500 μM). 350 μL, 300 μL and 250 μL DMSO were added to vial respectively, and then 150 μL, 200 μL and 250 μL of the alkyne solution (50 mM in DMSO) were added to the vials to afford final concentrations of alkyne 0.75 mM, 1 mM and 1.25 mM in PBS (10% DMSO, 25 μM prodrug) respectively. The reaction was stirred at r.t or 37° C. respectively. Every 30 min about 500 μL reaction mixtures were taken out and 20 μL of them were injected into the HPLC by the autosampler; the rest of them were poured back to the reaction mixture. (Note: In the cases of prodrugs 1d or 1b reacting with alkyne 2d at 37° C., the final concentrations of 2d in the kinetic studies were 250 μM, 300 μM and 350 μM).
Results. The results from the reaction kinetics studies of the tetrazine-cyclooctyne system are summarized below in Table 4. Prodrugs 1d or 1b (25 μM) were treated with alkynes 2d, 2c ,2a, or 2b at different concentrations at room temperature (r.t.) or 37° C., respectively. The prodrug consumption and release of the parent drug were monitored by HPLC (Table 4).

[1] = alkyne 2d (1 mM), dansyl amine for 1d

Row | Structure (SMILES) | Dox Peak % within 48 h, at r.t (alkyne 2a) [%] | Dox Peak % within 48 h, at r.t (alkyne 2b, dansyl amine for 1d) [%] | Dox Peak % within 48 h, at r.t (alkyne 2c, dansyl amine for 1d, listed as lb) [%] | Dox Peak % within 48 h, at r.t [1] | Dox Peak % within 48 h, at r.t (alkyne 2d (1 mM), dansyl amine for 1d, listed as lb) [%] | Dox Peak % within 48 h, at r.t (alkyne 2c, dansyl amine for 1d) [%]
1 | C#CCOc1ccc(-c2nnc(C(=O)NC3CC(OC4CC(O)(C(=O)CO)Cc5c(O)c6c(c(O)c54)C(=O)c4c(OC)cccc4C6=O)OC(C)C3O)nn2)cc1 (stereo not drawn) [1b] | 80 ± 5 | 80 ± 5 | 85 ± 5 | 20% | 20 ± 5 | –
2 | COc1cccc2c1C(=O)c1c(O)c3c(c(O)c1C2=O)CC(O)(C(=O)CO)CC3OC1CC(NC(=O)c2nnc(-c3ccc(OCc4cn(CCCCCCCCC[P+](c5ccccc5)(c5ccccc5)c5ccccc5)nn4)cc3)nn2)C(O)C(C)O1 (stereo not drawn) [1c] | – | 78 ± 6 | – | – | – | –
3 | C#CCOc1ccc(-c2nnc(C(=O)NCCCOCCOCCOCCCNS(=O)(=O)c3cccc4c(N(C)C)cccc34)nn2)cc1 [1d] | – | 90 ± 3 | – | 60% and 60 ± 6% | – | 90 ± 5
